Measured data: PubChem BioAssay AID652272 (Drosophila RNAi Screening Center, 2013)
The screen tested about 21,000 reagents; below is a random part of those that have a named target and a result. Over the whole deposit, 503 (2.4%) got an active call. 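Raw plate light values, not normalised; calls rest on replicate z-scores that were not deposited; hits include reporter decreases as well as increases.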 Reagent sequences are not shown. Not stated in the record: the amount of reagent, the time to read-out.

Test: 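Genes whose knock-down decreases or increases Hedgehog reporter output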 (primary screen)
Cells: Drosophila clone 8 (Cl8) cells
Reagents: long dsRNA against Drosophila genes
Measurement: 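Firefly light from a Hedgehog-responsive ptc promoter reporter and Renilla reference light, both read on a plate reader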
Scale: firefly Hh reporter signal: higher = more ptc reporter light; Renilla reference signal: higher = more Renilla control light
Call rule: 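Hit when the z-score averaged over two replicates is under -2 or over +3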
Meaning of the calls: active = hit: reporter lowered or raised; inactive = not a hit

no.	target gene	DRSC id	firefly Hh reporter signal, replicate 1	firefly Hh reporter signal, replicate 2	firefly Hh reporter signal, replicate 3	Renilla reference signal, replicate 1	Renilla reference signal, replicate 2	activity call
1	Tim23	DRSC21240	7.46e5	2.53e5		45240	6592	inactive
2	CG14455	DRSC11712	76007	1.12e5		2944	2984	inactive
3	amos	DRSC03484	94161	61952		1939	5434	inactive
4	CG6885	DRSC10740	73360			3266	1236	inactive
5	CG9123	DRSC20156	1.01e5	2.11e5		3730	10032	inactive
6	Dolk	DRSC07143	1.11e5	54022		2983	3115	inactive
7	crol	DRSC03514	1.19e5	72762		4067	3267	inactive
8	qm	DRSC11386	62560	78816		7072	5436	inactive
9	CG15210	DRSC19656	92359	2.85e5		3128	10330	inactive
10	Qsox1	DRSC06878	1.37e5	71888		3952	5229	inactive
11	CG13737	DRSC10064	34549	59725	48812	5131	1477	inactive
12	scyl	DRSC11392	59136	63449	58825	5472	4368	inactive
13	RhoGAP1A	DRSC20649	90009	1.73e5		3048	7133	inactive
14	RhoGAP1A	DRSC20651	65760	1.65e5		1674	6336	inactive
15	CG2269	DRSC06833	1.09e5	65387		4912	3323	inactive
16	CG17196	DRSC15189	7.03e5	1.28e5		35250	3856	inactive
17	AttD	DRSC16272	4.03e5	77301		2994	2994	inactive
18	CG14342	DRSC00372	92257	50486		2689	1824	active
19	CG15296	DRSC17983	56428	1.51e5		1433	6092	inactive
20	TER94	DRSC07560	31244	30179		2106	2006	inactive
21	CG9313	DRSC04540	1.41e5	1.13e5		5627	4086	inactive
22	CheA84a	DRSC12669	1.78e5			3890		inactive
23	CG30419	DRSC04208	1.24e5	5.61e5	85961	3387	33510	inactive
24	CG30419	DRSC04209	1.49e5	4.36e5	1.14e5	4337	27283	inactive
25	rod	DRSC17047	84944	1.90e5		2691	7357	inactive
26	mip120	DRSC06960	93251	50151		2656	4441	inactive
27	CG14075	DRSC10080	80976	1.28e5		2614	3562	inactive
28	CG15478	DRSC18057	1.08e5	4.24e5		1588	16464	inactive
29	Met	DRSC20284	75942	3.00e5		2162	10973	inactive

Copied from the list:
Value for CG9313 [DRSC04540] in “Renilla reference signal, replicate 1”: 5627
Under “Renilla reference signal, replicate 1”, RhoGAP1A [DRSC20651] has 1674
Met [DRSC20284], firefly Hh reporter signal, replicate 1 → 75942
CG14075 [DRSC10080], activity call = inactive
Entry of amos [DRSC03484] under “firefly Hh reporter signal, replicate 2”: 61952

Continued.
no.	target gene	DRSC id	firefly Hh reporter signal, replicate 1	firefly Hh reporter signal, replicate 2	firefly Hh reporter signal, replicate 3	Renilla reference signal, replicate 1	Renilla reference signal, replicate 2	activity call
30	CG1662	DRSC19754	1.10e5	95968		3044	1995	inactive
31	CG4101	DRSC10400	1.51e5			3856	15027	inactive
32	CG31522	DRSC12005	3.12e5			6464		inactive
33	CG2616	DRSC15440	57684	80520		2256	2299	inactive
34	halo	DRSC00705	1.50e5	1.25e5		3298	2967	inactive
35	CG31373	DRSC16052	72418	1.02e5		2288	2870	inactive
36	CG13700	DRSC10049	1.22e5			1761	3124	inactive
37	Rad60	DRSC15580	5.17e5	1.05e5		25574	3512	inactive
38	hbt	DRSC01310	5.00e5	4.00e5		25209	13192	inactive
39	hbt	DRSC02549	90637	60728		2327	5788	inactive
40	CG15203	DRSC19650	1.00e5	2.69e5		3057	10280	inactive
41	imd	DRSC05928	70120	85133		3101	3200	inactive
42	PTPMT1	DRSC14235	4.71e5	1.33e5		25105	3977	inactive
43	Sap130	DRSC09680	36848	31200	51792	5360	4795	inactive
44	Mct1	DRSC18681	82521	1.76e5		3328	6897	inactive
45	CG2225	DRSC03722	1.09e5	68506		4230	2436	inactive
46	CG2225	DRSC03723	1.08e5	63808		2525	6290	inactive
47	puf	DRSC15875	2.48e5	25063		15965	1065	inactive
48	CG10477	DRSC09732	60541	61584		5877	4632	inactive
49	Gr58b	DRSC04140	1.02e5	43115		2499	4484	inactive
50	HipHop	DRSC10734	78231	65003		3788	2737	inactive
51	CG8635	DRSC07226	85208	39113		4065	1731	inactive
52	CheA7a	DRSC17965	91485	3.35e5		2731	11692	inactive
53	CG14422	DRSC17919	1.34e5	3.67e5		4727	14256	inactive
54	Vajk4	DRSC06589	1.07e5	85538		5050	3287	inactive
55	Vajk4	DRSC07003	88909	37194		2202	3805	inactive
56	CG16959	DRSC10230	96218	45099		3645	1931	inactive
57	Pka-R2	DRSC07509	1.53e5	79536		3386	5308	inactive
